# According to the supplement of paper PMC11732987, “Enantioselective OTUD7B fragment discovery through chemoproteomics screening and high-throughput optimisation” (Communications Chemistry, 2025):
# Protein sequences, listed by entry. Tags and fused reporters are not part of them. Lines headed by an entry give the natural chain unless they say otherwise; changes in a name come on top. Residues count along the entry.
# UniProt O94915, 888-907: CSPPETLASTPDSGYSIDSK
# UniProt Q53R41: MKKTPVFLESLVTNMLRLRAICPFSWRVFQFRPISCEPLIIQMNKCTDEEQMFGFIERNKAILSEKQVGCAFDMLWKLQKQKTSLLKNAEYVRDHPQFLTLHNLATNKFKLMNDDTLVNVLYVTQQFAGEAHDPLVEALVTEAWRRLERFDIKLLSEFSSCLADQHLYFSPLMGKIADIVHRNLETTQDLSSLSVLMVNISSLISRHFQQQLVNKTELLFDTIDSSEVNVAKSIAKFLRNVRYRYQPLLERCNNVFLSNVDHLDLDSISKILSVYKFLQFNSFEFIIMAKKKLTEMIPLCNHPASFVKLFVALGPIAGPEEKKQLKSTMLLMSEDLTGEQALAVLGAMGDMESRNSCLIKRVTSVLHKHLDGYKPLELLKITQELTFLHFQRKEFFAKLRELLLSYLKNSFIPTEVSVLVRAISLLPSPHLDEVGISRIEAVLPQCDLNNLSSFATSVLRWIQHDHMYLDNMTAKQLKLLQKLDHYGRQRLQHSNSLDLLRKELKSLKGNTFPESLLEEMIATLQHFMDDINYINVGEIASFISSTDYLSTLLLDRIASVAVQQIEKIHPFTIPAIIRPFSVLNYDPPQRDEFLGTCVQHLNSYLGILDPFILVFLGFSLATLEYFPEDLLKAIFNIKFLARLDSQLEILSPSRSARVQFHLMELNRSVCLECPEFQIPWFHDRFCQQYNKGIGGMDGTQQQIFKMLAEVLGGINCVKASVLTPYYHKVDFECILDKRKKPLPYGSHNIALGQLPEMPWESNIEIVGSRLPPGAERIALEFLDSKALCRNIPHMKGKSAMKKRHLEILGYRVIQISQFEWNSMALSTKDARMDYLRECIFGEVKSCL
# UniProt Q0JRZ9, 604-626: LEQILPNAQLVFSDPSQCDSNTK
# UniProt P22087, 266-285: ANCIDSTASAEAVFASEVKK
# UniProt Q96AC1, 498-525: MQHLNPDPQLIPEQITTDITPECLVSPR
# UniProt Q13045: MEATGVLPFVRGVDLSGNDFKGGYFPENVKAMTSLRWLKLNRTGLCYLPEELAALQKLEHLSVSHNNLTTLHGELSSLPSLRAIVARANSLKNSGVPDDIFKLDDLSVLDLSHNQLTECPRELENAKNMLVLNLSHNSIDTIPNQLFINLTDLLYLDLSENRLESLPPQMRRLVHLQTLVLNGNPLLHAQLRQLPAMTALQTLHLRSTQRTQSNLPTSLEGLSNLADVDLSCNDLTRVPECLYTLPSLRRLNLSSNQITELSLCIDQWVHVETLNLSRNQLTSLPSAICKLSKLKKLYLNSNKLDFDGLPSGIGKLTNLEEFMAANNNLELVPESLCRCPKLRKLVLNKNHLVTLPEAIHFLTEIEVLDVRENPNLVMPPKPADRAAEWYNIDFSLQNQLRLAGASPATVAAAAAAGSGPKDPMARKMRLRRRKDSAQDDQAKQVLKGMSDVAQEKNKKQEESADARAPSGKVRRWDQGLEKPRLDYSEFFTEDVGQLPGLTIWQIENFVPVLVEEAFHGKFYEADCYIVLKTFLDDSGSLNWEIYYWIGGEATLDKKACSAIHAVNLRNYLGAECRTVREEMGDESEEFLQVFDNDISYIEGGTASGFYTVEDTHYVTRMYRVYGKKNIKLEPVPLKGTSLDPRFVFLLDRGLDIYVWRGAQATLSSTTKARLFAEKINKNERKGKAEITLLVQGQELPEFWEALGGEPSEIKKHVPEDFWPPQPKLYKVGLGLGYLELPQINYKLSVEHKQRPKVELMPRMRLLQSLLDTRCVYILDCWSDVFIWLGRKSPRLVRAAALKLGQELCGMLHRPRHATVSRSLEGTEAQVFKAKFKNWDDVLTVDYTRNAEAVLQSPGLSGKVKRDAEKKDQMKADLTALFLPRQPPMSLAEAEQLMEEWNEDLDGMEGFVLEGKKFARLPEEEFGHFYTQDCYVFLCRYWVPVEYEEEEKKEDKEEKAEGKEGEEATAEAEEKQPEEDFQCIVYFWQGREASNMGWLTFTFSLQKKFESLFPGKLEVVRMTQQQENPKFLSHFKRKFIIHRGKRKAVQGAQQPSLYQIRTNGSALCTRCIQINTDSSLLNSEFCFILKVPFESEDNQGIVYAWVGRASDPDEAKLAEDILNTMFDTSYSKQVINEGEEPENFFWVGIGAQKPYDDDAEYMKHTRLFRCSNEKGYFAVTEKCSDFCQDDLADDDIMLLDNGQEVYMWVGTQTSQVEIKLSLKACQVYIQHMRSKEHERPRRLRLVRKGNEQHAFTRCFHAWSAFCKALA
# UniProt Q9H469: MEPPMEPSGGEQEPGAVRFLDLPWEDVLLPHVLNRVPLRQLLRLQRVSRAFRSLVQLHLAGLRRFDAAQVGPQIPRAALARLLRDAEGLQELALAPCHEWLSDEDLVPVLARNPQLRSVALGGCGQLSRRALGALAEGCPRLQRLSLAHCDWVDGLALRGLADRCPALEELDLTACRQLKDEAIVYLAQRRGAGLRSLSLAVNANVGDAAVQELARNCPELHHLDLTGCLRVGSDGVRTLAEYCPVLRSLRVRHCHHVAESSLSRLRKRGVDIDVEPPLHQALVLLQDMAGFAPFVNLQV
# UniProt O94868: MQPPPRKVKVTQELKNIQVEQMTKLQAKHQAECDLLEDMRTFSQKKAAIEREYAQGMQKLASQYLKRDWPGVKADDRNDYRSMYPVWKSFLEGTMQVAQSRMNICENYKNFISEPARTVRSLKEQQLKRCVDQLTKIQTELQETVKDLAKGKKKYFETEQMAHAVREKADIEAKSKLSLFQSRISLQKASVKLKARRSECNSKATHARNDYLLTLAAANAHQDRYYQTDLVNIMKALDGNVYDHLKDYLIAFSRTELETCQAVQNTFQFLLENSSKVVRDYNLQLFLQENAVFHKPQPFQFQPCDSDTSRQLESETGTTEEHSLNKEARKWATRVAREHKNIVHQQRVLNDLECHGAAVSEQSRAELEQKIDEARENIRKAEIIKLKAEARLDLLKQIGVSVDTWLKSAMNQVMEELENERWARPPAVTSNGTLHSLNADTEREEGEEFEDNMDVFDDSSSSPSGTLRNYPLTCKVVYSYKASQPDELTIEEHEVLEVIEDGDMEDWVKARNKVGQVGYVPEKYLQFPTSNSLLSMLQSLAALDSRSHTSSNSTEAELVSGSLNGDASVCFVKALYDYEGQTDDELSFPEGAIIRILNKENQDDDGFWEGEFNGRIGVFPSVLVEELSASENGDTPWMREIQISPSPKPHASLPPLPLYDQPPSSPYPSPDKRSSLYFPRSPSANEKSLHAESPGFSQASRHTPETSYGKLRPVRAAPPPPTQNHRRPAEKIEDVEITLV
# UniProt Q9UET6: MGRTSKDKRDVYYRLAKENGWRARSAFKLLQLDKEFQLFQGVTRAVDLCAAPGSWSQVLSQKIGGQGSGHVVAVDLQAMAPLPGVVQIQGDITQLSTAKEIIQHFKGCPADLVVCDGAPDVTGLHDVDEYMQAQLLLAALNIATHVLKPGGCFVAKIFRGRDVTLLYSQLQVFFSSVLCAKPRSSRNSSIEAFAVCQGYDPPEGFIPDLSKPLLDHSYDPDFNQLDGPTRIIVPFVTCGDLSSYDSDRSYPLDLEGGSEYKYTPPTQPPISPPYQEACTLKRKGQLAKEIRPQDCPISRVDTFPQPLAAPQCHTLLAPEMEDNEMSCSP
# UniProt Q9Y613: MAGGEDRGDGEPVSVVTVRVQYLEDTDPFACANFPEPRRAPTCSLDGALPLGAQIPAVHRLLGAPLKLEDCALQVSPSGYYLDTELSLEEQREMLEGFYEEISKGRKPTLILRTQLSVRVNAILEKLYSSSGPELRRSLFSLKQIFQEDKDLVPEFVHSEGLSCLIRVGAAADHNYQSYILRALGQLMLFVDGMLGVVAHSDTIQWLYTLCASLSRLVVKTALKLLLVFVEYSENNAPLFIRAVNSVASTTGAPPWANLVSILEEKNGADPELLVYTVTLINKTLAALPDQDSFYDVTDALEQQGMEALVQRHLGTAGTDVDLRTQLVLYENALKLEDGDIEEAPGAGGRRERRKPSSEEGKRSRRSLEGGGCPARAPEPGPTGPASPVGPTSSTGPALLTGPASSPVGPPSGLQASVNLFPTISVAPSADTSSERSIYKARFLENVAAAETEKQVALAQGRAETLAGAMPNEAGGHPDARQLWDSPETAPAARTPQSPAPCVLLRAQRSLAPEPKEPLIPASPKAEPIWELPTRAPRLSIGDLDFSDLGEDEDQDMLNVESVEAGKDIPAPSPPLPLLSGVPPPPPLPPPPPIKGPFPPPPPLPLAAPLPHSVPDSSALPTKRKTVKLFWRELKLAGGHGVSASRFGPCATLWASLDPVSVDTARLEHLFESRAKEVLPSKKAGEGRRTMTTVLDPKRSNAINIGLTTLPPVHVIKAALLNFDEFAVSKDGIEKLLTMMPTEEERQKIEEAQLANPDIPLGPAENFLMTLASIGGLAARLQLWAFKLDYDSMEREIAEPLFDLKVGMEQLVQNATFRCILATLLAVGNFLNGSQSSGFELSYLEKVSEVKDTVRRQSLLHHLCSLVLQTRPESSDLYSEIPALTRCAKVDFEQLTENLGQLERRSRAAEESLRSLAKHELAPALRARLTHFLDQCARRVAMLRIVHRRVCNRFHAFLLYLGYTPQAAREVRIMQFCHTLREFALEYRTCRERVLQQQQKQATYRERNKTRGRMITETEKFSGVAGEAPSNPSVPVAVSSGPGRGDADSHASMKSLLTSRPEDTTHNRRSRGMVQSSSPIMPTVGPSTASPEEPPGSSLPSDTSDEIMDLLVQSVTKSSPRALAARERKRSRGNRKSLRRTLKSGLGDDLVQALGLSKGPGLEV
# UniProt Q9BQS8, 732-751: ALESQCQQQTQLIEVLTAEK
# UniProt Q96IG2: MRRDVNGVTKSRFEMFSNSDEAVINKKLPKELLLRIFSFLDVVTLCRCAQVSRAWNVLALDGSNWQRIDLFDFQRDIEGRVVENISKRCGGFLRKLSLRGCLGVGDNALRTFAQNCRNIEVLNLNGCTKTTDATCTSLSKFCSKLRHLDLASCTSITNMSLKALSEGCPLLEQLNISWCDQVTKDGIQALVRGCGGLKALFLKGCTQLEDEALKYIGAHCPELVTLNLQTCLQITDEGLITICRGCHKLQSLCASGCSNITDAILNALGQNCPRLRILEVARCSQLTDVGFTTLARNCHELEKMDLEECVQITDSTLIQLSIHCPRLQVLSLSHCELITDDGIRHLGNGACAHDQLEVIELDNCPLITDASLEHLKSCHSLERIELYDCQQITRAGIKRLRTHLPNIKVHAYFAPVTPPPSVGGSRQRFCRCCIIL
# UniProt Q7L8L6: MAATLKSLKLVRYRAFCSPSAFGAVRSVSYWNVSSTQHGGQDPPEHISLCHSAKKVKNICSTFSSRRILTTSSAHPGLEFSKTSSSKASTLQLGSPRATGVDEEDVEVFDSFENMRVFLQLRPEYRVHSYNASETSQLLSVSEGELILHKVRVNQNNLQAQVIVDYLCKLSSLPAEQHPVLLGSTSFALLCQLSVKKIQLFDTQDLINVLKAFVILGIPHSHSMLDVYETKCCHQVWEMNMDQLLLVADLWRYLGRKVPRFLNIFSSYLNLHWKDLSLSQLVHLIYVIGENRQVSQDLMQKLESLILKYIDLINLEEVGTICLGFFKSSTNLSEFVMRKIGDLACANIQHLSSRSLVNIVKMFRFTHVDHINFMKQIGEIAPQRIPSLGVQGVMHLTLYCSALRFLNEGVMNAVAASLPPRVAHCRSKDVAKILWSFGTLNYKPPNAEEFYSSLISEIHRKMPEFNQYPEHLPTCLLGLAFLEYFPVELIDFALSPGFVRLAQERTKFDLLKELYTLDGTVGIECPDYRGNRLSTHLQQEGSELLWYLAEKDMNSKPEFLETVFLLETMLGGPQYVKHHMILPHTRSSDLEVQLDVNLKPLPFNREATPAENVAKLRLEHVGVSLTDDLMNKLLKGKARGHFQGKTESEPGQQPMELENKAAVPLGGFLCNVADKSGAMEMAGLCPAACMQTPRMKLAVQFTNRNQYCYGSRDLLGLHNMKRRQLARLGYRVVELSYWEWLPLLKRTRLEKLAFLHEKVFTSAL
# UniProt P51114, whole entry, looked up: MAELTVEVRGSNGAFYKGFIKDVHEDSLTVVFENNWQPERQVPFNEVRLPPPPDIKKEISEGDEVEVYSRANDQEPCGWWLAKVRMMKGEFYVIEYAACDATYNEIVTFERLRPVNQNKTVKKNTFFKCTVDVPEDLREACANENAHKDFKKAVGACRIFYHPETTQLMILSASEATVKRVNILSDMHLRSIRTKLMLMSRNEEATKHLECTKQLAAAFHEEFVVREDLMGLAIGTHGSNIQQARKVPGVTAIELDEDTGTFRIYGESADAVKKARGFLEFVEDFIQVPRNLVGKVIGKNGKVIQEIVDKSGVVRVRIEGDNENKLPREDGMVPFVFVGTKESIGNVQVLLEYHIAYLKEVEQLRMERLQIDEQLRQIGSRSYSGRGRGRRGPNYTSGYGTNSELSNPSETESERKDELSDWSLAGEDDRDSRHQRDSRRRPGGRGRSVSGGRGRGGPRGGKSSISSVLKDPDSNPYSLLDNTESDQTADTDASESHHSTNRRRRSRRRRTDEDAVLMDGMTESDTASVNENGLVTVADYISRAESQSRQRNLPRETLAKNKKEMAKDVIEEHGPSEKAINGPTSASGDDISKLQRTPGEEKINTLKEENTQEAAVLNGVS
# The list shows a part of the results. The data scatter; read single values as rough.
# How the values were obtained:
# [1] = compound: ClCC(=O)N[C@@H]1CCCc2ccccc12; test: log2 mean competition ratio of IA-DTB cysteine labelling (DMSO/compound) (log2 ratio); higher = stronger cysteine engagement by compound; settings: treatment time: 4 h, cell line lysate: HEK293T
# Experimental: (§1)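 IA-DTB competitive cysteine chemoproteomics in HEK293T RIPA lysate. Lysates were treated with compound 29 or 30 at 50 or 200 µM for 4 h, then IA-DTB (500 µM, 1 h), trypsin-digested, NeutrAvidin-enriched and analysed by diaPASEF. Competition ratio = intensity DMSO / intensity compound (n=4 treated, n=64 DMSO); binding: mean log2 CR ≥ 1 and p ≤ 0.05 plus QC filters. Target is the cysteine site.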
# [2] = compound: ClCC(=O)N[C@H]1CCCc2ccccc12; test: as above; settings: treatment time: 4 h, cell line lysate: HEK293T
# Experimental: as §1
Target,log2 mean competition ratio ([1]; 50 µM),log2 mean competition ratio ([1]; 200 µM),log2 mean competition ratio ([2]; 200 µM),log2 mean competition ratio ([2]; 50 µM)
FLNA C1453,-0.289,-0.0225,,
FRYL C888 (UniProt O94915),0.295,-0.232,,
FPGT C414 (UniProt O14772),-0.0421,-0.208,,
GATAD1 C179,-0.106,-0.187,,
FASTKD1 C838 (UniProt Q53R41),-0.0312,-0.451,,
FCHO2 C621 (UniProt Q0JRZ9),0.268,0.334,,
FLNC C1103 (UniProt Q14315),-0.237,0.656,,
FBL C268 (UniProt P22087),-0.0902,-0.0499,,
FERMT2 C520 (UniProt Q96AC1),0.114,0.137,,
FRA10AC1 C175 (UniProt Q70Z53),0.0128,-0.135,,
GARS1 C180,-0.162,0.0134,,
FCSK C1000 (UniProt Q8N0W3),0.259,0.867,,
FLII C46 (UniProt Q13045),0.433,-0.244,,
FBXL15 C244 (UniProt Q9H469),0.0396,0.167,,
FCHSD2 C33 (UniProt O94868),-0.0921,0.214,,
FTSJ1 C295 (UniProt Q9UET6),-0.0624,0.0144,,
FNBP1 C609 (UniProt Q96RU3),-0.127,-0.0205,,
FOXM1 C160,-0.526,0.172,,
FHOD1 C164 (UniProt Q9Y613),-0.0355,-0.154,,
FKBP8 C295 (UniProt Q14318),-0.0547,-0.0609,,
FHOD1 C936 (UniProt Q9Y613),0.139,0.526,,
FYCO1 C1110 (UniProt Q9BQS8),-0.0667,-0.127,,
GAK C87 (UniProt O14976),0.341,0.34,,
FBXO45 C69 (UniProt P0C2W1),-0.02,0.404,,
FYCO1 C737 (UniProt Q9BQS8),-0.206,-0.107,,
FASTKD2 C645 (UniProt Q9NYY8),0.191,-0.224,,

# Individual results from the results shown:
# Entry for FASTKD1 C838 (UniProt Q53R41) under log2 mean competition ratio ([1]; 50 µM): -0.0312
# Entry for FKBP8 C295 (UniProt Q14318) under log2 mean competition ratio ([1]; 200 µM): -0.0609
# Entry for FHOD1 C164 (UniProt Q9Y613) under log2 mean competition ratio ([1]; 200 µM): -0.154
# Entry for FTSJ1 C295 (UniProt Q9UET6) under log2 mean competition ratio ([1]; 200 µM): 0.0144
# Entry for FLII C46 (UniProt Q13045) under log2 mean competition ratio ([1]; 50 µM): 0.433
# Entry for FLNA C1453 under log2 mean competition ratio ([1]; 200 µM): -0.0225

# (next part)

Target,log2 mean competition ratio ([1]; 50 µM),log2 mean competition ratio ([1]; 200 µM),log2 mean competition ratio ([2]; 200 µM),log2 mean competition ratio ([2]; 50 µM)
FARSB C195 (UniProt Q9NSD9),-0.000594,0.03,,
FASTKD1 C300 (UniProt Q53R41),0.293,-0.149,,
FOXF2 C404,0.212,0.355,,
FASN C1227,-0.299,-0.176,,
G6PD C13,0.0173,-0.162,,
FLOT2 C88 (UniProt Q14254),0.0759,0.287,,
FLNC C2660 (UniProt Q14315),-0.182,0.04,,
FECH C294 (UniProt P22830),-0.251,,,
FPGT C424 (UniProt O14772),0.624,-0.175,,
FLAD1 C236 (UniProt Q8NFF5),0.107,0.145,,
GAPVD1 C789 (UniProt Q14C86),-0.0868,-0.048,,
FLII C576 (UniProt Q13045),-0.167,-0.0822,0.187,
GAB1 C360 (UniProt Q13480),0.094,0.24,,
FOXO4 C243 (UniProt P98177),0.0209,0.251,,
FUBP3 C109 (UniProt Q96I24),-0.19,0.0584,,
FER C796 (UniProt P16591),0.124,0.115,-0.12,-0.154
GATA2 C413 (UniProt P23769),-0.223,-0.0415,-0.0854,
GABPA C223 (UniProt Q06546),-0.273,-0.257,,
FHL1 C71 (UniProt Q13642),0.278,-0.252,,
FBXO11 C581 (UniProt Q86XK2),0.328,0.197,0.497,
FIGNL1 C154 (UniProt Q6PIW4),0.726,0.184,,
GAN C452 (UniProt Q9H2C0),0.0915,-0.349,,
FGD1 C926,0.0709,-0.0495,0.0841,0.0428
GAPVD1 C275 (UniProt Q14C86),0.261,0.0667,,
GAREM1 C9,0.122,-0.0582,,
FHIP2B C186,-0.0208,-0.272,-0.122,

Target,log2 mean competition ratio ([1]; 50 µM),log2 mean competition ratio ([1]; 200 µM),log2 mean competition ratio ([2]; 200 µM),log2 mean competition ratio ([2]; 50 µM)
GART C1005,0.0639,-0.0588,,
FEM1B C129 (UniProt Q9UK73),-0.172,-0.306,,
FBXO5 C202 (UniProt Q9UKT4),0.295,0.18,-0.0843,
FMR1 C584 (UniProt Q06787),-0.0615,0.331,0.344,-0.12
FYCO1 C928 (UniProt Q9BQS8),-0.319,0.514,,
FNIP1 C281 (UniProt Q8TF40),0.101,0.305,,
FOXF1 C339,-0.296,0.924,0.506,
FASN C2202,-0.159,-0.36,,
FOXC1 C135,0.268,0.449,,
FCHSD1 C88 (UniProt Q86WN1),-0.427,0.103,0.174,-0.355
FNDC3A C774 (UniProt Q9Y2H6),0.139,-0.104,,
FECH C360 (UniProt P22830),0.0663,-0.264,-0.0448,-0.0597
FOCAD C657 (UniProt Q5VW36),0.0593,-0.0474,,
FYN C246 (UniProt P06241),-0.0781,-0.588,-0.591,
G3BP2 C73 (UniProt Q9UN86),0.234,0.0806,,
FSCN1 C61 (UniProt Q16658),-0.0453,0.0374,,
FBXL20 C298 (UniProt Q96IG2),0.186,-0.0931,,
FASTKD5 C670 (UniProt Q7L8L6),0.238,0.0969,,
FBXL20 C389 (UniProt Q96IG2),0.00728,0.0939,,-0.151
GAREM1 C796,0.0375,0.443,0.112,
FXR1 C141 (UniProt P51114),-0.273,-0.00739,,
FASTKD2 C546 (UniProt Q9NYY8),0.424,0.0831,,
FBXL18 C63 (UniProt Q96ME1),-0.144,0.0809,0.0568,-0.586
FRMD4A C183,0.0397,0.317,-0.0554,-0.0856
